Data as given in PubChem BioAssay AID1224830 (NIAID, 2016).
Assay: 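Host factors that control LPS-induced TNF expression in human macrophages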 (primary screen). System: human THP-1 monocytic leukaemia cells, TNF dual-luciferase reporter clone, PMA-differentiated to macrophage-like cells. Reagents: siRNA pool against human genes, 50 nM. Timing: LPS for 4 h, given about 3 days after siRNA transfection. Treatment: bacterial LPS (TLR4 ligand), 10 ng/ml. Read-out: 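TNF firefly reporter luminescence divided by renilla, normalised to the plate median, then turned into a robust z-score for each replicate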. Scale: TNF reporter robust z-score: higher = stronger TNF reporter response to LPS. Hit rule: 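Each well counts as active if its z-score is over 2.8 or under -1.5; controls are left without a call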.
The deposit covers about 18,000 reagents; below is a part drawn at random. About 2,900 of all reagents (16%) were called active. 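Calls are made per well; low scores hint the gene aids the LPS response, high scores that it dampens it.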 Entries without a mark were called inactive. Repeated entries: four replicate wells of each siRNA pool. No sequences are given here.

gene knocked down	TNF reporter robust z-score
TP53INP1 (tumor protein p53 inducible nuclear protein 1)	-0.01
TP53INP1 (tumor protein p53 inducible nuclear protein 1)	1.23
TP53INP1 (tumor protein p53 inducible nuclear protein 1)	-0.15
TP53INP1 (tumor protein p53 inducible nuclear protein 1)	1.51
ORC6 (origin recognition complex subunit 6)	-0.7
ORC6 (origin recognition complex subunit 6)	-0.09
ORC6 (origin recognition complex subunit 6)	0.33
ORC6 (origin recognition complex subunit 6)	0.24
OR51Q1 (olfactory receptor family 51 subfamily Q member 1)	-0.29
OR51Q1 (olfactory receptor family 51 subfamily Q member 1)	-0.09
OR51Q1 (olfactory receptor family 51 subfamily Q member 1)	-0.19
OR51Q1 (olfactory receptor family 51 subfamily Q member 1)	0.44
NR5A2 (nuclear receptor subfamily 5 group A member 2)	-0.71
NR5A2 (nuclear receptor subfamily 5 group A member 2)	-0.65
NR5A2 (nuclear receptor subfamily 5 group A member 2)	-0.7
NR5A2 (nuclear receptor subfamily 5 group A member 2)	0.45
SPG21 (SPG21 abhydrolase domain containing, maspardin)	-0.03
SPG21 (SPG21 abhydrolase domain containing, maspardin)	0.26
SPG21 (SPG21 abhydrolase domain containing, maspardin)	0.63
SPG21 (SPG21 abhydrolase domain containing, maspardin)	-1.17
ZNHIT2 (zinc finger HIT-type containing 2)	-0.23
ZNHIT2 (zinc finger HIT-type containing 2)	-0.39
ZNHIT2 (zinc finger HIT-type containing 2)	0.09
ZNHIT2 (zinc finger HIT-type containing 2)	-0.1
CPA4 (carboxypeptidase A4)	-0.29
CPA4 (carboxypeptidase A4)	-0.04
CPA4 (carboxypeptidase A4)	0.09
CPA4 (carboxypeptidase A4)	2.31
SNX18 (sorting nexin 18)	-0.86
SNX18 (sorting nexin 18)	-0.8
SNX18 (sorting nexin 18)	-0.56
SNX18 (sorting nexin 18)	-0.95
FAM170A (family with sequence similarity 170 member A)	0.98
FAM170A (family with sequence similarity 170 member A)	0.12
FAM170A (family with sequence similarity 170 member A)	0.07
FAM170A (family with sequence similarity 170 member A)	0.04
DEPDC1B (DEP domain containing 1B)	-0.05
DEPDC1B (DEP domain containing 1B)	-0.18
DEPDC1B (DEP domain containing 1B)	0.33
DEPDC1B (DEP domain containing 1B)	0.49
GNL3L (G protein nucleolar 3 like)	0.35
GNL3L (G protein nucleolar 3 like)	-0.22
GNL3L (G protein nucleolar 3 like)	-0.36
GNL3L (G protein nucleolar 3 like)	0.53
NCR1 (natural cytotoxicity triggering receptor 1)	-0.16
NCR1 (natural cytotoxicity triggering receptor 1)	0.08
NCR1 (natural cytotoxicity triggering receptor 1)	0.17
NCR1 (natural cytotoxicity triggering receptor 1)	0.29
JAK3 (Janus kinase 3)	1.23
JAK3 (Janus kinase 3)	0.77
JAK3 (Janus kinase 3)	0.21
JAK3 (Janus kinase 3)	0
SPI1 (Spi-1 proto-oncogene)	-2.38 (active)
SPI1 (Spi-1 proto-oncogene)	-2.39 (active)
SPI1 (Spi-1 proto-oncogene)	-2.45 (active)
SPI1 (Spi-1 proto-oncogene)	-2.35 (active)
GTF2H5 (general transcription factor IIH subunit 5)	-0.44
GTF2H5 (general transcription factor IIH subunit 5)	0.38
GTF2H5 (general transcription factor IIH subunit 5)	-0.03
GTF2H5 (general transcription factor IIH subunit 5)	0.51
MAP3K12 (mitogen-activated protein kinase kinase kinase 12)	0
MAP3K12 (mitogen-activated protein kinase kinase kinase 12)	0.99
MAP3K12 (mitogen-activated protein kinase kinase kinase 12)	0.36
PDK4 (pyruvate dehydrogenase kinase 4)	1.28
PDK4 (pyruvate dehydrogenase kinase 4)	-0.11
PDK4 (pyruvate dehydrogenase kinase 4)	-1.68 (active)
PDK4 (pyruvate dehydrogenase kinase 4)	-0.79
OPN4 (opsin 4)	0.69
OPN4 (opsin 4)	-0.45
OPN4 (opsin 4)	0.65
OPN4 (opsin 4)	0.94
B4GAT1 (beta-1,4-glucuronyltransferase 1)	1.83
B4GAT1 (beta-1,4-glucuronyltransferase 1)	-0.15
B4GAT1 (beta-1,4-glucuronyltransferase 1)	-0.34
B4GAT1 (beta-1,4-glucuronyltransferase 1)	1.33
LRRC3B (leucine rich repeat containing 3B)	10.6 (active)
LRRC3B (leucine rich repeat containing 3B)	-0.54
LRRC3B (leucine rich repeat containing 3B)	-1.6 (active)
LRRC3B (leucine rich repeat containing 3B)	-0.52
TNIP1 (TNFAIP3 interacting protein 1)	-2.05 (active)
TNIP1 (TNFAIP3 interacting protein 1)	-1.29
TNIP1 (TNFAIP3 interacting protein 1)	-2.02 (active)
TNIP1 (TNFAIP3 interacting protein 1)	-1.24
CD69 (CD69 molecule)	1.71
CD69 (CD69 molecule)	1.55
CD69 (CD69 molecule)	0.57
CD69 (CD69 molecule)	2.19
ESRP1 (epithelial splicing regulatory protein 1)	-0.51
ESRP1 (epithelial splicing regulatory protein 1)	-0.6
ESRP1 (epithelial splicing regulatory protein 1)	-0.7
ESRP1 (epithelial splicing regulatory protein 1)	-0.78
PIK3CD-AS1 (PIK3CD antisense RNA 1)	0.7
PIK3CD-AS1 (PIK3CD antisense RNA 1)	1.41
PIK3CD-AS1 (PIK3CD antisense RNA 1)	0.34
PIK3CD-AS1 (PIK3CD antisense RNA 1)	-1.04
KCNA3 (potassium voltage-gated channel subfamily A member 3)	-0.63
KCNA3 (potassium voltage-gated channel subfamily A member 3)	-0.29
KCNA3 (potassium voltage-gated channel subfamily A member 3)	-0.69
KCNA3 (potassium voltage-gated channel subfamily A member 3)	-0.13
PCBP4 (poly(rC) binding protein 4)	1.16
PCBP4 (poly(rC) binding protein 4)	-0.45
PCBP4 (poly(rC) binding protein 4)	1.39
PCBP4 (poly(rC) binding protein 4)	1.12
GAS6 (growth arrest specific 6)	0.79
GAS6 (growth arrest specific 6)	-0.8
GAS6 (growth arrest specific 6)	-0.95
GAS6 (growth arrest specific 6)	-0.32
ZKSCAN5 (zinc finger with KRAB and SCAN domains 5)	-0.89
ZKSCAN5 (zinc finger with KRAB and SCAN domains 5)	-0.05
ZKSCAN5 (zinc finger with KRAB and SCAN domains 5)	-0.96
ZKSCAN5 (zinc finger with KRAB and SCAN domains 5)	-0.52

Reformatted: 8 of the entries above.
TNIP1 (TNFAIP3 interacting protein 1)
- TNF reporter robust z-score: -2.02 (active)

TNIP1 (TNFAIP3 interacting protein 1)
- TNF reporter robust z-score: -1.24

CD69 (CD69 molecule)
- TNF reporter robust z-score: 1.71

CD69 (CD69 molecule)
- TNF reporter robust z-score: 1.55

CD69 (CD69 molecule)
- TNF reporter robust z-score: 0.57

CD69 (CD69 molecule)
- TNF reporter robust z-score: 2.19

ESRP1 (epithelial splicing regulatory protein 1)
- TNF reporter robust z-score: -0.51

ESRP1 (epithelial splicing regulatory protein 1)
- TNF reporter robust z-score: -0.6
